Measurements as given in publication PMC4071561.
Positions count from the first letter of the chain named. Names and notes keep the numbering of the source. No constants are given. Whether binding was seen depends on the method and setting. In cells and extracts the contact can be indirect. Some results given as binding are weak or reduced against the parent protein; the word gives no strength. For part of these data: Where a sequence is shown, tags or fusion partners need not be part of it. Each block holds one binder with its values, some of them ahead of it.

Sequences of proteins named here, by UniProt entry; tags and fusion partners are left off.
UniProt Q14498: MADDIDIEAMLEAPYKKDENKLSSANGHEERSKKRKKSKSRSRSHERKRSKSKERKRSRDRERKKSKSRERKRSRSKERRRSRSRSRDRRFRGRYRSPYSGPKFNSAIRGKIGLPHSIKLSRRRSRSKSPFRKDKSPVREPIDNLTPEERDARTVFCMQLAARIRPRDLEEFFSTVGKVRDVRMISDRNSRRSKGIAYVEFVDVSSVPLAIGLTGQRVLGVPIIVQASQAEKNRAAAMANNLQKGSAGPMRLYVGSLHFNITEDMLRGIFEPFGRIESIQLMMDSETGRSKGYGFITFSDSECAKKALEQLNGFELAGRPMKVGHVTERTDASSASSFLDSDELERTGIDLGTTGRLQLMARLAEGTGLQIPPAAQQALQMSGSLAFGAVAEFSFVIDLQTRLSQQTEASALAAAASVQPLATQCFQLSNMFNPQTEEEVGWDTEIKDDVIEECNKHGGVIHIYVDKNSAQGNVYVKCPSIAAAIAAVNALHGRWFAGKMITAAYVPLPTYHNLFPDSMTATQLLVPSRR

Columns and labels:
[1] = molecular target: T1, Caperα, endogenous mouse (mouse (endogenous in e10.5 embryos)) (UniProt Q8VH51); test: co-IP; e10.5 mouse embryo lysates; IP with anti-Caperα, immunoblot with anti-Tbx3; Dynabeads Protein G, 4°C
T1 sequence: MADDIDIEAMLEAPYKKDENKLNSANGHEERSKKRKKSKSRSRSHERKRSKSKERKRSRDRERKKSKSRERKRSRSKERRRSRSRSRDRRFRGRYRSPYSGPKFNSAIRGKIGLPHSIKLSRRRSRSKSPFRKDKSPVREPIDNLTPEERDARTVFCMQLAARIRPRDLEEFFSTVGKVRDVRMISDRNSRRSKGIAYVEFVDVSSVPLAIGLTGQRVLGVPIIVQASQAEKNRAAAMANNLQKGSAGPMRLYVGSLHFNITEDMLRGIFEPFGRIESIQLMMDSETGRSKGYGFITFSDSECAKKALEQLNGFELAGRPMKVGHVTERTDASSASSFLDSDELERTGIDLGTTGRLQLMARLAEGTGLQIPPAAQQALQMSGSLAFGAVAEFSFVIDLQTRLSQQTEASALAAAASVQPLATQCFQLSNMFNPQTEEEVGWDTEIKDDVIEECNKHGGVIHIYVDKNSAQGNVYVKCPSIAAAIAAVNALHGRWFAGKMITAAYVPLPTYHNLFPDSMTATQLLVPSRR

[2] = molecular target: T2, CAPERα (Coactivator of AP1 and Estrogen Receptor), endogenous human (human (endogenous in HEK293 and HFFs)) (UniProt Q14498); test: co-IP; HEK293 cells transfected with anti-TBX3 shRNA and expressing untagged mouse Tbx3 proteins; IP with anti-CAPERα (endogenous), immunoblot with anti-Tbx3
T2 sequence: T1 sequence with N23S

binding [1]: binds
B1: Tbx3, endogenous mouse (protein, UniProt P70324-2 1-721)
chain: MSLSMRDPVIPGTSMAYHPFLPHRAPDFAMSAVLGHQPPFFPALTLPPNGAAALSLPGALAKPIMDQLVGAAETGIPFSSLGPQAHLRPLKTMEPEEDVEDDPKVHLEAKELWDQFHKRGTEMVITKSGRRMFPPFKVRCSGLDKKAKYILLMDIIAADDCRYKFHNSRWMVAGKADPEMPKRMYIHPDSPATGEQWMSKVVTFHKLKLTNNISDKHGFTILNSMHKYQPRFHIVRANDILKLPYSTFRTYLFPETEFIAVTAYQNDKITQLKIDNNPFAKGFRDTGNGRREKRKQLTLQSMRVFEERHKKETSDESSSEQAAFNCFAQASSPAVSIVGTSNLKDLCPSEAESDAEAESKEEHGPEACDAAKISTTTAEEPGRDKGSPATRAQLFPAEPSRARDTARLDKASPDSRHSPATISSSTRVPGADERRSPGREGPVATKVDEARAIPAKDAFAPLSVQTDATAHLAQGPLPGLGFAPGLAGQQFFNGHPLFLHPGQFAMGGAFSSMAAGMGPLLATVSGASTGVSGLESTAMASAAAAQGLSGASAATLPFHLQQHVLASQGLAMSPFGSLFPYPYTYMAAAAAASTAAASSSVHRHPFLNLNSMRPRLRYSPYSIPVPVPDSSSLLATALPSMASAAGPLDGKAAALAASPASVAVDSGSELNSRSSTLSSGSVSLSPKLCSEKEAATSELQSIQRLVSGLEAKPDRSCSGSP

binding [2]: binds
B2: wild-type mouse Tbx3, overexpressed, untagged (protein, UniProt P70324-2 1-721)
chain: B1 chain

binding [2]: binds
B3: mouse Tbx3 L143P (DNA binding domain point mutant) (protein, UniProt P70324-2 1-721)
chain: B1 chain with L143P
